Assay results reported in PMC7294942.
These are yes or no findings as the source states them, for the method shown. Binding seen in cells or lysates may run through a third protein. Some entries that bind do so weakly or less than the wild type.

The chains behind the UniProt entries cited, without tags or fusion partners.
UniProt Q92831: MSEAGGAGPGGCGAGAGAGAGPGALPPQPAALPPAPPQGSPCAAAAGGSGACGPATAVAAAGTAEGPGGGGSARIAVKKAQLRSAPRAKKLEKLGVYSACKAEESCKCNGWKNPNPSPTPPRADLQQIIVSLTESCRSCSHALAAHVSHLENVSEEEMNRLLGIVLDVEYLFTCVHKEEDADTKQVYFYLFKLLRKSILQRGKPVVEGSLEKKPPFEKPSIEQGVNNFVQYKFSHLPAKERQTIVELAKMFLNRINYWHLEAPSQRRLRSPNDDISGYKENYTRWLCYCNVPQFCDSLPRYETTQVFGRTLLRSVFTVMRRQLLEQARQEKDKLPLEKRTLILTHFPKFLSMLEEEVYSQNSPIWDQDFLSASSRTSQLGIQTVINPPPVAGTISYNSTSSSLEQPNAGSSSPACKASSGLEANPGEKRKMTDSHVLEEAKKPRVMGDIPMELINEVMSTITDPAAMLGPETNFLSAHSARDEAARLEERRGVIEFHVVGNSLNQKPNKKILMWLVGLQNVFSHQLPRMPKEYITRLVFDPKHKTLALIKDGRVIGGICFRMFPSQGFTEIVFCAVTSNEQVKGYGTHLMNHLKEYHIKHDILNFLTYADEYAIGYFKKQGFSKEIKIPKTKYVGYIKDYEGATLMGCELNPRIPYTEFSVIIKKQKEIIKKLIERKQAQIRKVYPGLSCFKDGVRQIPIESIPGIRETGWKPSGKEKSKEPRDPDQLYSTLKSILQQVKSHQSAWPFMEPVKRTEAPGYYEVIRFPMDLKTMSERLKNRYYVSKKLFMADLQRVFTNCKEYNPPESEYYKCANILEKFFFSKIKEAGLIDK
UniProt P01106: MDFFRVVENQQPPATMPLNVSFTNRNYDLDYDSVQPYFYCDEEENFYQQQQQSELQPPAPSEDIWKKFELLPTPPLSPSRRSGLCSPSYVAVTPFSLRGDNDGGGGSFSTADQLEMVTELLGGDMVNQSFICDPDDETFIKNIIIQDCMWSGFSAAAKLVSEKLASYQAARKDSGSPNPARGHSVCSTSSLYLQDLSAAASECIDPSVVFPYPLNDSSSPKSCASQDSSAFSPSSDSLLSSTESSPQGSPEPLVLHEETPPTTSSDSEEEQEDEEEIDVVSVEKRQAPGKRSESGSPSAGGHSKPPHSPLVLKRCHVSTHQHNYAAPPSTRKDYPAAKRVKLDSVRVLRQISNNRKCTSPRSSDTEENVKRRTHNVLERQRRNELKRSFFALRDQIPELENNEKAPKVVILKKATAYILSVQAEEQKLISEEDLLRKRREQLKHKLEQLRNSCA

How the values were obtained:
[1] = molecular target: Flag-PCAF (p300/CBP-associated Factor) (UniProt Q92831); test: co-IP; MIA PaCa-2 cells co-transfected with a pCDNA3-2×Flag and a pCDNA3-6×Myc construct; lysates immunoprecipitated with anti-Flag and anti-Myc resins; immunoblots with anti-Flag and anti-Myc antibodies
Flag-c-MYC = Flag-c-MYC (UniProt P01106); test: as above
[2] = molecular target: c-MYC (human (endogenous in pancreatic tissue of AP patients)) (UniProt P01106); test: co-IP; pancreatic tissues from three AP patients mixed and lysed; immunoprecipitation with IgG or anti-c-MYC antibody on protein A beads; immunoblots for c-MYC, PCAF, CtBP1 and CtBP2

Substance: Myc-CtBP2 (C-terminal Binding Protein 2) (from UniProt P56545 1-445)
- binding [1]: binds
- binding (Flag-c-MYC): no binding

Substance: Myc-PCAF (p300/CBP-associated Factor) (from UniProt Q92831 1-832)
- binding (Flag-c-MYC): binds

Substance: Myc-c-MYC (from UniProt P01106 1-454)
- binding [1]: binds

Substance: PCAF (p300/CBP-associated Factor) (from UniProt Q92831 1-832)
- binding [2]: binds
